The values below come from the supplement of paper PMC12819154, “High-throughput peptide-centric local stability assay extends protein–ligand identification to membrane proteins, tissues and bacteria” (Nature Structural & Molecular Biology, 2025).

By UniProt entry, the sequences of proteins in these tests, tags left out. Where a name states a change or a piece, a line headed by the entry shows the natural chain unless it says otherwise.
UniProt Q9NX61: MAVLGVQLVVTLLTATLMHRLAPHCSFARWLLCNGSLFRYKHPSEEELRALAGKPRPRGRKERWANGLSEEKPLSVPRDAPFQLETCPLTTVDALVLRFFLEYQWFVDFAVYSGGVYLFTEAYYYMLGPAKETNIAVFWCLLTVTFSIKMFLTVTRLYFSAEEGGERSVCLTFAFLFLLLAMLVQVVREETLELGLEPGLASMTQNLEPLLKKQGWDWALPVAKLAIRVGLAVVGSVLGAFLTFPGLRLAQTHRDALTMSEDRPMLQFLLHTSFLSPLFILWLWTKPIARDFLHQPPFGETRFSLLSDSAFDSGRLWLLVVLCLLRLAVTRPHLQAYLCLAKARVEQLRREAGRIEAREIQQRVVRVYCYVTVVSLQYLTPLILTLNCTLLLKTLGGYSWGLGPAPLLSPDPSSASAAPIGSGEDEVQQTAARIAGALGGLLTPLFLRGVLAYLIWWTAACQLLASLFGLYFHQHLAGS
UniProt Q9NYJ8: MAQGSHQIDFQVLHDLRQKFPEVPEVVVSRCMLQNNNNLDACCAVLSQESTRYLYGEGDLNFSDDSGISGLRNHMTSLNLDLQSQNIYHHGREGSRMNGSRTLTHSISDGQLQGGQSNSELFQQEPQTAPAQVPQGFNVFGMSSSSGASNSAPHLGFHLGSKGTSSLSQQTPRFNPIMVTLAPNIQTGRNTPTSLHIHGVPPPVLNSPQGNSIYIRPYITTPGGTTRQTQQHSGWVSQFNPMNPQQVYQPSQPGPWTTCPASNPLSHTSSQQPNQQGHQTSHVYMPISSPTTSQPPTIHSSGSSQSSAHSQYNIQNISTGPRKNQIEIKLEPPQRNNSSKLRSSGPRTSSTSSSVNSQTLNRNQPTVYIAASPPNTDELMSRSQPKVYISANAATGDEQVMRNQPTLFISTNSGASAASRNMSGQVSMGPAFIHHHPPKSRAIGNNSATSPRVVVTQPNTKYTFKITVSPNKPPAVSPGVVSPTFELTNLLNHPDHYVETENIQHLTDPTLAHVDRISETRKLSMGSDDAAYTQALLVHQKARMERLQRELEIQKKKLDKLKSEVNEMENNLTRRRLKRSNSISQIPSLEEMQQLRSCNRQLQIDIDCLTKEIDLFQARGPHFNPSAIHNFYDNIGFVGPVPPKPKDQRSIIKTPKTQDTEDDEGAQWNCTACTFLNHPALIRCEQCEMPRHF
UniProt Q9NXW9: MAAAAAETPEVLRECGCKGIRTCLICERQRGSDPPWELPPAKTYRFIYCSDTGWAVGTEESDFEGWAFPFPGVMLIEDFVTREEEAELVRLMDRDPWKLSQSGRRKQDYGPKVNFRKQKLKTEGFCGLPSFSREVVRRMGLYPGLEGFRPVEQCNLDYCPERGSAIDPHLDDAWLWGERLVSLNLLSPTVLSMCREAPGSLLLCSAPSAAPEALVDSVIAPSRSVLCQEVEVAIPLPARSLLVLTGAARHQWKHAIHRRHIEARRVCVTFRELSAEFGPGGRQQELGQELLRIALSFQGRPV
UniProt Q9P0W2: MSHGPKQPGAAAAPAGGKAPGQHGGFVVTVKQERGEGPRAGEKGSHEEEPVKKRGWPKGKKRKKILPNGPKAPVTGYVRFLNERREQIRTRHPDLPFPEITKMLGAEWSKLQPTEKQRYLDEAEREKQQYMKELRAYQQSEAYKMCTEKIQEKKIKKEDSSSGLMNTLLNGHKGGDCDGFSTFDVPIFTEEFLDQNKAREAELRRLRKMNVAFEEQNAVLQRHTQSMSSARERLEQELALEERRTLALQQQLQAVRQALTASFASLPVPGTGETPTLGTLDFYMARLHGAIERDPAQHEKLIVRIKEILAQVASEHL
UniProt Q9NZZ3: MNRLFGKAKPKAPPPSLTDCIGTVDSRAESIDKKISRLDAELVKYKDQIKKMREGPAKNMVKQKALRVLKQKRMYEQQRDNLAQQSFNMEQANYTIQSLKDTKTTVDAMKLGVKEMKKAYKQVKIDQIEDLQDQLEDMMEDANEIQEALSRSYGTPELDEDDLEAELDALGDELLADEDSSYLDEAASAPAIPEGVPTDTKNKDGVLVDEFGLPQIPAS
UniProt Q9P0J1: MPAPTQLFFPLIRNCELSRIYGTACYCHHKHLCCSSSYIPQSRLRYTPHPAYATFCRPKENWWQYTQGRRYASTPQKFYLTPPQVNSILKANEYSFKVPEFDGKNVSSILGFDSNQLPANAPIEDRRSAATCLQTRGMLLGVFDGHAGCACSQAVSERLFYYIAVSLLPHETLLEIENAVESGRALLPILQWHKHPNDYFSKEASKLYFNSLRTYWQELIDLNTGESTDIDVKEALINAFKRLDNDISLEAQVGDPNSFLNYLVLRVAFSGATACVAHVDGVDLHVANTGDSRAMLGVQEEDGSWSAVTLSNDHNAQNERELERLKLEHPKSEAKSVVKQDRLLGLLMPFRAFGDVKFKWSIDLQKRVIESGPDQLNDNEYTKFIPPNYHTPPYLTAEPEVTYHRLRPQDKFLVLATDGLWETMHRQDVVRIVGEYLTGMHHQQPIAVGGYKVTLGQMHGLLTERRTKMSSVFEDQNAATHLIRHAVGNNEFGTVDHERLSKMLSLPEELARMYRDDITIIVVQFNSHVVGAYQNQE
UniProt Q9NX31: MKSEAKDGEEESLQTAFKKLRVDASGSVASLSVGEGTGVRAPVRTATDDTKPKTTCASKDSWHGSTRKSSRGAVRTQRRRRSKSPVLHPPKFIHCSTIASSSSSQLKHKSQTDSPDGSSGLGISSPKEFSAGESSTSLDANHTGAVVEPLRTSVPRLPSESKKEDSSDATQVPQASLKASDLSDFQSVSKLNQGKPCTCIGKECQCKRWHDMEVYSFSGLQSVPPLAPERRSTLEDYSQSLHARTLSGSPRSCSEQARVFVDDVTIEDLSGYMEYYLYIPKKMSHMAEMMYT
UniProt Q9NX46: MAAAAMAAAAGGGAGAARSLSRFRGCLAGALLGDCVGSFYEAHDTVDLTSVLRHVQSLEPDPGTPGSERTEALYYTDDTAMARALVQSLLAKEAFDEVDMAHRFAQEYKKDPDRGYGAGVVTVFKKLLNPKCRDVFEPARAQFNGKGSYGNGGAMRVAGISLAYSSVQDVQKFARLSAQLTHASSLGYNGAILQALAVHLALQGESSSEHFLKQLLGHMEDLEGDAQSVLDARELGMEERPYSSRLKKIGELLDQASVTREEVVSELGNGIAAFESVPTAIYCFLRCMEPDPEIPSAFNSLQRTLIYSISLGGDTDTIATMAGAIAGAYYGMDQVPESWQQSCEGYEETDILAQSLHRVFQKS
UniProt Q9UGK8: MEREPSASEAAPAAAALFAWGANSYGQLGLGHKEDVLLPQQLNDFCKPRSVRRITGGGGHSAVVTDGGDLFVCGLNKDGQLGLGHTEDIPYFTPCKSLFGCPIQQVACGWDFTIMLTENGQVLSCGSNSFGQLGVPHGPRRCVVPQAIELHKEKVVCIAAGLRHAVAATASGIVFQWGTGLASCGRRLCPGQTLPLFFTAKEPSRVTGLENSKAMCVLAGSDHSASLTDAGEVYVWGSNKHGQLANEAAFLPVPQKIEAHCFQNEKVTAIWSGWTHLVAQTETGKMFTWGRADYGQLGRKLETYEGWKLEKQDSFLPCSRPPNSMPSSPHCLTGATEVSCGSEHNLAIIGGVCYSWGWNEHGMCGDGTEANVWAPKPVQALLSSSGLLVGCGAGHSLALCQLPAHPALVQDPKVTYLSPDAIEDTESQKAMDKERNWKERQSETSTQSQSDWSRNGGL
UniProt Q9UBL3, whole entry: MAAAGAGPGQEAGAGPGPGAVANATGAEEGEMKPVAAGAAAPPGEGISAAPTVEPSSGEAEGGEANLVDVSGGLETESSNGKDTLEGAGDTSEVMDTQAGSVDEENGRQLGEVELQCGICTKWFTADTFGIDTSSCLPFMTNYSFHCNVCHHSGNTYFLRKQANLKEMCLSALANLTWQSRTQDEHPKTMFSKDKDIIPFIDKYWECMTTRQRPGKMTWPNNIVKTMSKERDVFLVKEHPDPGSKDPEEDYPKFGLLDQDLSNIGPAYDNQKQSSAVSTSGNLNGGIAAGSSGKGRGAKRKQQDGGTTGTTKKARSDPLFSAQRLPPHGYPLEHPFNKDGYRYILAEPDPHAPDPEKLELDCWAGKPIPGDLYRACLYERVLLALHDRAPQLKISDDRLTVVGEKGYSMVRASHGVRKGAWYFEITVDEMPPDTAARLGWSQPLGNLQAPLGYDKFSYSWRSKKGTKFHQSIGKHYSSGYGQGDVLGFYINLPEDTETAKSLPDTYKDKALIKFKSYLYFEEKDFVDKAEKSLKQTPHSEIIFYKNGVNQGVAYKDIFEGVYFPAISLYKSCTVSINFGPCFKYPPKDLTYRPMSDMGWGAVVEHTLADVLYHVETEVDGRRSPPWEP
UniProt Q9NWZ8: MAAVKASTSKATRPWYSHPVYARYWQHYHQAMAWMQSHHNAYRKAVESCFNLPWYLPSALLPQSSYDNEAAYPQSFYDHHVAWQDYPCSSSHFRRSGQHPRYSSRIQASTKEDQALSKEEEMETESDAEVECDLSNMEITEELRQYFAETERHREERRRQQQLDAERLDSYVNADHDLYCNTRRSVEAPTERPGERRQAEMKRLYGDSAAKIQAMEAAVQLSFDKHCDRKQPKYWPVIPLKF
UniProt Q9P206: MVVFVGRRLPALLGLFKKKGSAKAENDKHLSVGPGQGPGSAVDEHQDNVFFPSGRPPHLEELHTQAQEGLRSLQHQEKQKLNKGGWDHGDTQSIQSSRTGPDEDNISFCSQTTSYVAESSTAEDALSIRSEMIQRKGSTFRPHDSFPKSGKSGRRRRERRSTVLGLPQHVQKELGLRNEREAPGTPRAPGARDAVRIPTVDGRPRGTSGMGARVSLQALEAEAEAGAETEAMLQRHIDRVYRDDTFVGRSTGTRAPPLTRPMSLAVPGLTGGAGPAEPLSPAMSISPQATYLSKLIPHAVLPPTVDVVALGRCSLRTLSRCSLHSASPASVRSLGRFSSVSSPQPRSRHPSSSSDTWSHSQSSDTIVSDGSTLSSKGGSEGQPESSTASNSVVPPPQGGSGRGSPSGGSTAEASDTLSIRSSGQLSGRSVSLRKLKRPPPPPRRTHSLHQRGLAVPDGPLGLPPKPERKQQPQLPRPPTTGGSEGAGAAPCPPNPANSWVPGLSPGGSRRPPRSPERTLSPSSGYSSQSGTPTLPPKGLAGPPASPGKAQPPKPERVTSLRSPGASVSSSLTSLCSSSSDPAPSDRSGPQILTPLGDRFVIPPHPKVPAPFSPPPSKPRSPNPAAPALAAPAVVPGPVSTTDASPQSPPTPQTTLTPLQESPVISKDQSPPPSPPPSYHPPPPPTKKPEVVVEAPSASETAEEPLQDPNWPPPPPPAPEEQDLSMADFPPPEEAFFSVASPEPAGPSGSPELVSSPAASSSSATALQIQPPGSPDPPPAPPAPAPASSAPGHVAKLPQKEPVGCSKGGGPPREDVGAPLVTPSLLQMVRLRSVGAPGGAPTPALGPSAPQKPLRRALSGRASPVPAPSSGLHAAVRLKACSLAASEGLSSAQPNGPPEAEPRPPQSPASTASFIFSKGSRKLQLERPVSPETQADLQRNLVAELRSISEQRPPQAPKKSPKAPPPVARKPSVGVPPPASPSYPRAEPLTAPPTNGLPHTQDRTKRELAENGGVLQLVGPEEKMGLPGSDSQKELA
UniProt Q9NZW5: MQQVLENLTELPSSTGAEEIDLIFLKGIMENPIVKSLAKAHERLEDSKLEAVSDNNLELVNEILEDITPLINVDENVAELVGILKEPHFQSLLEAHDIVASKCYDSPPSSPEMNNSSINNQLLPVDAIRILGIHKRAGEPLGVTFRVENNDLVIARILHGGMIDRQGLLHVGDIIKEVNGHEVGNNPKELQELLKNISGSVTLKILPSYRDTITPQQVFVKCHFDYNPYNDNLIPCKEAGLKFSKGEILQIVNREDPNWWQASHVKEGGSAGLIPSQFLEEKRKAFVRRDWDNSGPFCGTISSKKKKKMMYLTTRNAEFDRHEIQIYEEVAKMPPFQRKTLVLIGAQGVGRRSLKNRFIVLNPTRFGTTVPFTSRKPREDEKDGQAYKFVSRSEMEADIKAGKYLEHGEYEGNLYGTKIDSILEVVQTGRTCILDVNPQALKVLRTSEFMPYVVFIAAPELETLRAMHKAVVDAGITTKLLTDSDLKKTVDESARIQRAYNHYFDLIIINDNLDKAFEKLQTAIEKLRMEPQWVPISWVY
UniProt Q9UBI1, whole entry: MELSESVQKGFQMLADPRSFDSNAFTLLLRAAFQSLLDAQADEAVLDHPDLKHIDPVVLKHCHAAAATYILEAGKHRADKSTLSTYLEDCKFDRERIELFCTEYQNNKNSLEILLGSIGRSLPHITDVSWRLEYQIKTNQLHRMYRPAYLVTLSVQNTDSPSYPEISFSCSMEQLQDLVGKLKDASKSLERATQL
UniProt Q9UFF9, whole entry: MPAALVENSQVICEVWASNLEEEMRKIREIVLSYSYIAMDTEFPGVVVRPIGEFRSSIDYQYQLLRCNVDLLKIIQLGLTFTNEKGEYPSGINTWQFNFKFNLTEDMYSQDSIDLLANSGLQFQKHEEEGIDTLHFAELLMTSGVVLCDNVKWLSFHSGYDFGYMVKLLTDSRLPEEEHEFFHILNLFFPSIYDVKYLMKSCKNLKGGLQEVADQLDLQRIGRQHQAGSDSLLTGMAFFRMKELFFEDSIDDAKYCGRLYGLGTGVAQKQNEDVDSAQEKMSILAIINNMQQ

Some of the results follow. Most values lie at the level of the controls, where differences are scatter.

Compound in the test: Cc1nc(Nc2ncc(C(=O)Nc3c(C)cccc3Cl)s2)cc(N2CCN(CCO)CC2)n1 [dasatinib]
Briefly: log2 fold change of tryptic peptide abundance, ligand vs vehicle (limited proteolysis) (log2 ratio); higher = more trypsin-susceptible (destabilized). Conditions: ligand concentration: 5 uM; sample: K562 cleared lysate.
Take “TXNDC16 (peptide sequence: KEPIETLR, peptide start residue: 789) (UniProt Q9P2K2)”: the log2 fold change was -0.306. With “NLRP2 (peptide sequence: SSLLCLDLGLNHIGVK, peptide start residue: 925) (UniProt Q9NX02)”, the log2 fold change is 0.634. On to “POGK (peptide sequence: RYDLSLR, peptide start residue: 316) (UniProt Q9P215)”, for which the log2 fold change came to 0.303. For “MRPL35 (peptide sequence: MTTSFWK, peptide start residue: 161) (UniProt Q9NZE8)”, the log2 fold change is -0.0259. Under “TMEM161A (peptide sequence: WANGLSEEKPLSVPR, peptide start residue: 64) (UniProt Q9NX61)” stands 0.163. With “SAE1 (peptide sequence: ALSQRDPPHNNFFFFDGMK, peptide start residue: 317) (UniProt Q9UBE0)”, the log2 fold change turned out to be 0.504. Take “UniProt Q9NYJ8 (peptide sequence: NMSGQVSMGPAFIHHHPPK, peptide start residue: 421)”: the log2 fold change was determined as 0.191. For the target “ALKBH4 (peptide sequence: ELSAEFGPGGR, peptide start residue: 272) (UniProt Q9NXW9)”, the log2 fold change turned out to be 0.133. For the target “HMG20B (peptide sequence: APGQHGGFVVTVK, peptide start residue: 19) (UniProt Q9P0W2)”, the log2 fold change is -0.22.

Consider “CHMP5 (peptide sequence: YKDQIKK, peptide start residue: 45) (UniProt Q9NZZ3)”, for which the log2 fold change is -0.0293. Consider “DNAJB4 (peptide sequence: DGSNIIYTAK, peptide start residue: 246) (UniProt Q9UDY4)”, for which the log2 fold change is -0.335. For the target “UniProt Q9P0J1 (peptide sequence: VTLGQMHGLLTER, peptide start residue: 453)”, the log2 fold change was -0.175. For the target “UniProt Q9NX31 (peptide sequence: ASDLSDFQSVSK, peptide start residue: 179)”, the log2 fold change stood at 0.317. “SPAST (peptide sequence: VYVSLPNEETR, peptide start residue: 504) (UniProt Q9UBP0)”: the log2 fold change was 0.0936.

For “ADPRHL2 (peptide sequence: ALVQSLLAK, peptide start residue: 84) (UniProt Q9NX46)”, the log2 fold change turned out to be 0.125.

On to “SERGEF (peptide sequence: VTYLSPDAIEDTESQKAMDKER, peptide start residue: 414) (UniProt Q9UGK8)”, for which the log2 fold change was -0.252. Take “ASH2L (peptide sequence: NGVNQGVAYK, peptide start residue: 546) (UniProt Q9UBL3)”: the log2 fold change is -0.488. Regarding “GEMIN8 (peptide sequence: SVEAPTERPGERR, peptide start residue: 185) (UniProt Q9NWZ8)”, the log2 fold change was found to be 0.255. “UniProt Q9P2S5 (peptide sequence: AGAGPLPSSESK, peptide start residue: 296)”: the log2 fold change worked out at 0.11. Under “NOL12 (peptide sequence: KAAIEEIK, peptide start residue: 43) (UniProt Q9UGY1)” stands -0.205; under “PISD (peptide sequence: EAAVEDLHHYR, peptide start residue: 153) (UniProt Q9UG56)”, 0.379.

“KIAA1522 (peptide sequence: RSTVLGLPQHVQK, peptide start residue: 160) (UniProt Q9P206)”: the log2 fold change is -0.334.

In the case of “REV1 (peptide sequence: GKPVAVTSNR, peptide start residue: 441) (UniProt Q9UBZ9)”, the log2 fold change is -0.257. For “ZNF629 (peptide sequence: GNSYPGAAEGR, peptide start residue: 623) (UniProt Q9UEG4)”, the log2 fold change is -0.183. Under “MPP6 (peptide sequence: DTITPQQVFVK, peptide start residue: 211) (UniProt Q9NZW5)” stands -0.457; under “MAGEC2 (peptide sequence: EHFVYGEPR, peptide start residue: 263) (UniProt Q9UBF1)”, -0.124. In the case of “COMMD3 (peptide sequence: STLSTYLEDCKFDR, peptide start residue: 81) (UniProt Q9UBI1)” it was 0.266; in that of “CNOT8 (peptide sequence: QHQAGSDSLLTGMAFFR, peptide start residue: 224) (UniProt Q9UFF9)”, 0.161.
